Laboratory results: PubChem BioAssay AID1259254 (NCATS, 2017)
Assay: 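Finding genes that stop cells copying their DNA twice in one cycle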 (primary screen). Cell system: human HCT116 colorectal cancer cells. Reagents: single siRNA against human genes. Timing: 3 days. Measurement: 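Imaged Hoechst DNA stain sorts each cell into a cycle phase by DNA amount; per plate, G2 fraction set to 0% for non-targeting and 100% for GMNN siRNA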. Reading the numbers: G2 robust z-score: higher = more G2 cells, more excess DNA replication. Call rule: 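An siRNA counts as active if its G2 robust z-score lies at least 5 MADs above the screen median; here such calls match roughly 38% of GMNN control or more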.
The whole screen tested about 59,000 reagents; shown is a part drawn at random. About 1,550 of all reagents (2.6%) were called active. 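G2 share is only a proxy for re-replication; each gene was hit by three separate siRNAs, and active genes were retested.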 Reagents against one gene are numbered here. Not all columns of the deposit are shown. The record does not give: the amount of reagent.

With knock-down of ERAL1 #1, the screen gave G2 robust z-score 1.24; inactive.
Knock-down of ERAL1 #2 came out at: G2 robust z-score -0.8; inactive.
After knock-down of ERAL1 #3, the screen gave G2 robust z-score 0.222; inactive.
ABHD1 #1 gave G2 robust z-score -0.714; inactive.
For ABHD1 #2, the entry reads G2 robust z-score 0.902; inactive.
Silencing of ABHD1 #3 gave: G2 robust z-score 3.14; inactive.
Depletion of FGF3 #1 gave: G2 robust z-score 1.23; inactive.
Against FGF3 #2 the deposit lists G2 robust z-score 0.469; inactive.
With knock-down of FGF3 #3, the screen gave G2 robust z-score -0.603; inactive.
After knock-down of EMP1 #1 the results were G2 robust z-score 2.02; inactive.
Depletion of EMP1 #2 resulted in: G2 robust z-score 0.219; inactive.
EMP1 #3 showed G2 robust z-score 0.334; inactive.
With knock-down of PHACTR4 #1 the results were G2 robust z-score -0.369; inactive.
After knock-down of PHACTR4 #2 the results were G2 robust z-score 1.85; inactive.
Knock-down of PHACTR4 #3 resulted in: G2 robust z-score 5.66; active.
With knock-down of PRR22 #1, the screen gave G2 robust z-score 0.512; inactive.
For PRR22 #2, the values are G2 robust z-score -0.39; inactive.
PRR22 #3 showed G2 robust z-score -0.558; inactive.
MAGEC2 #1 gave G2 robust z-score -1.57; inactive.
With knock-down of MAGEC2 #2, the screen gave G2 robust z-score 1.31; inactive.
Knock-down of MAGEC2 #3 resulted in: G2 robust z-score 1.11; inactive.
Silencing of USP6NL #1 resulted in: G2 robust z-score 0.844; inactive.
After knock-down of USP6NL #2, the screen gave G2 robust z-score -0.483; inactive.
Silencing of USP6NL #3 came out at: G2 robust z-score -0.58; inactive.
PIGO #1 showed G2 robust z-score -0.218; inactive.
Silencing of PIGO #2 gave: G2 robust z-score 0.492; inactive.
For PIGO #3, the values are G2 robust z-score -1.05; inactive.
Depletion of CCDC127 #1 resulted in: G2 robust z-score -0.434; inactive.
After knock-down of CCDC127 #2 the results were G2 robust z-score 2.37; inactive.
Silencing of CCDC127 #3 came out at: G2 robust z-score 0.783; inactive.

Ordered by “G2 robust z-score” (descending): 5 of the entries above
EMP1 #1 → G2 robust z-score: 2.02; Outcome: inactive
FGF3 #1 → G2 robust z-score: 1.23; Outcome: inactive
FGF3 #2 → G2 robust z-score: 0.469; Outcome: inactive
EMP1 #2 → G2 robust z-score: 0.219; Outcome: inactive
FGF3 #3 → G2 robust z-score: -0.603; Outcome: inactive
